Measured values from US8455666B1, “Vegetable oil esterified lipoic acid” (The United States of America, as represented by the …, priority 2011, dated 2013).

How the values were obtained:
[1] = Vesicle leakage (calcein-cobalt) assay
Method: Lipid Preparation and Formation of Unilamellar Phospholipid Vesicles. Lipid mixtures and vesicles were prepared as described previously (Laszlo et al. 2010. ibid). Lipids were prepared from appropriate amounts of DOPC in chloroform and LDOG-SS- or LDOG-SH (at 1- or 5-mol % of total lipids) in ethanol added to clean amber vials and then gently mixed. Solvents were removed under a stream of argon and then vacuum. The dried lipids were rehydrated in the appropriate buffer and mixed periodically to form multilamellar phospholipid vesicles. The vesicles were subjected to freeze-thaw cycles and then extrusion to form unilamellar vesicles (approx. 125 nm in diameter). Vesicles were covered with argon, protected from light and stored at 4° C. until used. DOPC vesicles incorporating 1- or 5-mol % ALA or DHLA were similarly produced.
Vesicle Leakage (Calcein-Cobalt). Vesicles with and without LDOG were evaluated for membrane integrity using a leakage assay described previously (Evans. Room-temperature ionic liquid cations act as short-chain surfactants and disintegrate a phospholipid bilayer. Colloid. Surface. A 2006, 274:11-17; and Laszlo et al. 2010. ibid). Briefly, the leakage assay was designed such that the low fluorescent signal of the entrapped calcein-cobalt complex increased as vesicles leaked their contents and cobalt was stripped from calcein by external EDTA. Vesicle leakage was monitored with a fluorometer. Samples were continuously stirred in 1-cm path length quartz cuvettes 37° C., with measurements taken for 30 min at 5-s intervals. Experiments were conducted in triplicate. Leakage percentage (L) was determined from the intensity of the fluorescent signal, 100×(Ft−Fo)/(Fmax−Fo), where Ft was the fluorescent signal over time, Fo was the extrapolated initial signal at time zero, and Fmax was the fluorescent signal at the end of the experiment after rupture by addition of Triton X-100 solution. The apparent rate constant k (ms^−1) and maximum extent of vesicle leakage (L∞), prior to vesicle rupture, were obtained by fitting to the equation: Lt=L∞(1−exp(−kt)).

[2] = Fluorescence quenching of Bodipy-labeled fatty acids in DOPC vesicles (lipoyl moiety location); conditions: increasing concentration (10-50 μM) in 950 μM DOPC vesicles
Source text: Lipoic Moiety Location Using Bodipy-Labeled Fatty Acid. Prior studies determined drug location within phospholipid membrane using a series of n-(9-anthroyloxy) stearic acids (Ferreira et al., Partition and location of nimesulide in epc liposomes: A spectrophotometric and fluorescence study. Analytical and Bioanalytical Chemistry 2003, 377:293-298; and Ferreira et al., Effects of diclofenac on epc liposome membrane properties. Anal Bioanal Chem 2005, eFIRST) in which the anthroyloxy moiety is inserted at the 2, 6, 9, or 12 carbon position on the fatty acid chain. Fluorescence quenching of the anthroyloxy moiety in the presence of increased quencher concentrations was used to infer quencher position within the bilayer. This is based on the concept that quenching occurs between the anthroyloxy group and the nearest quencher only. In this current study, the membrane location of the lipoic moiety of LDOG-SS- and LDOG-SH was similarly determined using a fatty acid labeled with Bodipy® 500/510 located at different positions of the fatty acid. […] Fluorescence emission spectra were recorded using 509 nm excitation. Relative fluorescence (F/F0) was determined, where F0 was the fluorescence value at 517 nm for vesicles without any lipoyl lipid present and F was the 517 nm emission peak value of vesicles with either lipoyl lipid present. […]

[3] = antioxidant amount 1 mol % in DOPC vesicles, 37° C.
[4] = antioxidant amount 5 mol % in DOPC vesicles, 37° C.

Molecule: O=C(O)CCCC[C@@H](S)CCS (racemic) [DHLA, dihydrolipoic acid]
- leakage rates compared with unaugmented liposomes ([1]; 5-mol % inclusion level): five-fold lower
- maximum leakage (L∞) [1, 3]: 0.7 ± 0.3%
- maximum leakage (L∞) [1, 4]: 1.5 ± 0.6%

Molecule: O=C(O)CCCCC1CCSS1 (stereo not drawn) [ALA, α-Lipoic acid]
- maximum leakage (L∞) [1, 3]: 7.6 ± 2.1%
- maximum leakage (L∞) [1, 4]: 4.7 ± 0.7%

Molecule: dihydrolipoyl dioleoylglycerol [LDOG—SH]
- maximum leakage (L∞) [1, 3]: 6.1 ± 0.5%
- maximum leakage (L∞) [1, 4]: 3.1 ± 0.2%
- quenching of C8,C5-Bodipy fluorescence [2]: decreased moderately

Molecule: lipoyl dioleoylglycerol [LDOG—SS—]
- leakage rates compared with unaugmented DOPC vesicles ([1]; 37° C., in words): lowered an order of magnitude
- maximum leakage (L∞) [1, 3]: 4.2 ± 0.7%
- maximum leakage (L∞) [1, 4]: 3.6 ± 0.5%
- quenching of C8,C5-Bodipy fluorescence [2]: decreased moderately
